Measurements from PubChem BioAssay AID1347076 (National Center for Advancing Translational Sciences (NCATS), 2019).
Hit rate of the full screen: of about 400,000 compounds, about 13,000 (3.2%) were called active. This list was built around the results that the source calls inconclusive (neither active nor inactive); the mix of calls is not that of the screen. Calls come from the whole dose curve; as a rule, active = well fitted cell-killing curve with a large enough effect; inconclusive = small, poorly fitted or top-dose-only effect, or effect the other way; inactive = flat fitted curve, though single readings scatter. A potency beside an inconclusive call is a rough fit, not a confirmed value.

Assay: qHTS assay for MDR1-selective chemotherapeutics: Primary screen using the drug-selected MDR subline cells KB-V1; note: nearly all actives have a fitted effect of over 60% in size
Conditions: KB-V1 MDR cells viability, CellTiter-Glo, 72 h; activity change, negative = cytotoxicity: at 46.1 µM (top of the series)
Summary of the method: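 Cells of the MDR subline KB-V1 are plated, dosed with compound at multiple concentrations, and incubated 72 h at 37 degrees C; CellTiter-Glo is then added and luminescence read after 10 min.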
% is set by controls: 0 for no effect and ±100 for the full control effect; potency is the fitted concentration of half-maximal effect.

| SMILES | Potency | activity change, negative = cytotoxicity |
| --- | --- | --- |
| Cc1nn2c(N3CCN(c4ccccn4)CC3)cc(C(C)C)nc2c1-c1ccccc1 | inconclusive: 13 µM [cytotoxic, partial curve, poor fit] | – |
| O=C(NC1CCCC1)C(c1ccc(F)cc1)N(C(=O)c1csnn1)C1CC1 (stereo not given) | inconclusive: 14.6 µM [cytotoxic, partial curve] | – |
| CCN1CCN(CCc2nc3cc([N+](=O)[O-])ccc3n2C)CC1 | – | inactive: -20.5% |
| Cc1ccc(NC(=O)c2ccc(=O)n(Cc3ccccc3C)c2)c(C)c1 | inconclusive: 29.1 µM [cytotoxic, single point] | – |
| O=C(NCc1ccccc1)C1CCC(CNc2c(N3CCCCC3)c(=O)c2=O)CC1 (stereo not given) | inconclusive: 32.6 µM [rising, single point] | – |
| Cc1ccc(S(=O)(=O)NC(C)C(c2cccs2)N2CCN(c3ccccc3)CC2)cc1 (stereo not given) | inconclusive: 29.1 µM [cytotoxic, single point] | – |
| CCc1nc(SC)ncc1C(=O)N1CCN(c2cc(C)ccc2C)CC1 | – | inactive: -25.1% |
| CCN(CC)S(=O)(=O)c1ccc(C(=O)N2CCN=C2SCc2cccnc2)cc1 | inconclusive: 16.4 µM [cytotoxic, single point] | – |
| C=CCn1c(=O)c(C(=O)NCCc2ccc(Cl)cc2)c(O)c2cc(OC)c(OC)cc21 | – | inactive: -0.526% |
| N#Cc1c(NC(=O)C2CCCO2)sc2c1CCCCCC2 (stereo not given) | active: 18.4 µM | – |
| CCN(c1ccccc1)S(=O)(=O)c1ccc(Cl)c(C(=O)Nc2ccncc2)c1 | inconclusive: 14.6 µM [cytotoxic, partial curve] | – |
| O=C(NCCc1c[nH]c2ccccc12)/C(=C/c1cccnc1)NC(=O)c1ccco1 | inconclusive: 29.1 µM [rising, single point] | – |
| COc1ccccc1-c1nnc(NC(=O)c2ccc(S(=O)(=O)N3CCOCC3)cc2)o1 | inconclusive: 5.8 µM [cytotoxic, partial curve, poor fit] | – |
| COC(=O)c1ccccc1Oc1nc(Cl)cc(OC)n1 | inconclusive: 18.4 µM [cytotoxic, partial curve, poor fit] | – |
| O=C(COc1ccccc1)Nc1ccc2c(c1)nc1n2CCSC1 | inconclusive: 20.6 µM [cytotoxic, single point] | – |
| COc1cc(/C=C2/SC(=S)N(CC(=O)NC(C)(C)C)C2=O)cc(OC)c1OC | inconclusive: 29.1 µM [cytotoxic, single point] | – |
| COc1ccccc1CN1CCNC(=O)C1CC(=O)NC1CCCCCC1 (stereo not given) | inconclusive: 29.1 µM [cytotoxic, single point] | – |
| COc1cc(C2C(C(=O)c3cc4ccccc4o3)=C(O)C(=O)N2c2cc(C)on2)cc(OC)c1OC (stereo not given) | – | inactive: -13.4% |
| CCOc1ccc(Cl)cc1-c1cc(C(=O)NCc2cc(C(F)(F)F)cc(C(F)(F)F)c2)[nH]n1 | inconclusive: 20.6 µM [cytotoxic, single point] | – |
| CN(C(=O)c1ccc(NC(=O)Cc2ccc(NC(=O)C3CCN(C(=O)C4CC4)CC3)cc2)cc1)C1CC1 | inconclusive: 23.1 µM [rising, single point] | – |
| Cn1cncc1C#Cc1ccc2cc(CCCO)oc(=O)c2c1 | inconclusive: 32.6 µM [rising, single point] | – |
| CSc1ccc(Cn2c(C)c(C(=O)NCc3cccc(C)c3)sc2=O)cc1 | active: 9.2 µM | – |
| COc1cc(/C=c2\s/c(=C\C(=O)C(C)(C)C)[nH]c2=O)cc(OC)c1OC | inconclusive: 5.17 µM [cytotoxic, full curve] | – |
| CC(C)CC(=O)Nc1nnc(CSCc2ccc(F)cc2)s1 | inconclusive: 18.4 µM [cytotoxic, single point] | – |

| SMILES | Potency | activity change, negative = cytotoxicity |
| --- | --- | --- |
| CCOc1ccc(C(=O)Nc2cc(OC)ccc2OC)cc1 | inconclusive: 25.9 µM [cytotoxic, partial curve, poor fit] | – |
| Cc1ccc(CNC(=O)c2ccc3c(O)c(S(=O)(=O)c4ccc(Cl)cc4)c(=O)[nH]c3c2)cc1 | – | inactive: -8.83% |
| CC1(C)Cc2nc3oc4c(N(CCO)Cc5ccccc5)ncnc4c3cc2CO1 | active: 14.6 µM | – |
| Cc1ccc(/C=N/NC(=O)CSCc2ccc(Cl)cc2)cc1 | inconclusive: 29.1 µM [cytotoxic, single point] | – |
| Cc1cccc(N2CCN(C(=O)c3cnn4c(C(F)F)cc(-c5ccccc5)nc34)CC2)c1C | inconclusive: 32.6 µM [cytotoxic, single point] | – |
| Cc1nn(C)c2c1c(-c1ccccc1)cc(=O)n2CC(=O)NC(C)C | – | inactive: 9.57% |
| COc1ccccc1CNc1ncnc2c1cnn2-c1ccc(C)cc1 | – | inactive: -13.2% |
| CCCn1c(-c2cccc([N+](=O)[O-])c2)nc2c1c(=O)[nH]c(=O)n2Cc1ccccc1 | inconclusive: 7.31 µM [cytotoxic, partial curve] | – |
| CCC(=O)Nc1nc(CC(=O)Nc2ccccc2)cs1 | active: 25.9 µM | – |
| COc1ccccc1C(=O)N1c2ccccc2Sc2ccccc21 | inconclusive: 29.1 µM [cytotoxic, single point] | – |
| O=[N+]([O-])c1ccc(Nc2ccc(Cl)cc2)nc1 | – | inactive: 2.03% |
| Nc1ncnc2c1ncn2[C@@H]1O[C@H](CO)C[C@H]1O | – | inactive: 0.0354% |
| O=C1Nc2cc(C(=O)NCCCN3CCOCC3)ccc2S/C1=C/c1ccccc1F | – | inactive: 25% |
| Fc1ccccc1CSc1nnc(-c2ccccc2)o1 | inconclusive: 29.1 µM [cytotoxic, single point] | – |
| COc1ccccc1NC(=O)CN1CCN(Cc2ccccc2)CC1 | active: 10.3 µM | – |
| O=C1NC(c2ccc(O)cc2)Nc2ccccc21 (stereo not given) | inconclusive: 11.6 µM [cytotoxic, partial curve] | – |
| COCCn1c(SCC(=O)N2CCCCC2)nc2ccccc2c1=O | active: 4.11 µM | – |
| COc1cc(C#Cc2c(-c3cncn3C)n(C)c3ccc(-c4ccc(CN5CCOCC5)cc4)cc23)cc(OC)c1 | inconclusive: 29.1 µM [rising, single point] | – |
| CC(C)(C)n1nnnc1C(c1cccs1)N(Cc1cccnc1)Cc1ccco1 (stereo not given) | inconclusive: 29.1 µM [cytotoxic, single point] | – |
| CCn1c(=O)c(C(=O)Nc2ccccc2)c(O)c2ccccc21 | – | inactive: -4.43% |
| CC[C@@H]1Cc2cc(O)ccc2C2=C1c1ccc(O)cc1C[C@H]2CC | inconclusive: 23.1 µM [cytotoxic, single point] | – |
| CC1(C)Cc2c(C#N)c(N)sc(=S)c2CS1 | inconclusive: 0.0184 µM [rising, full curve] | – |
| C[C@@H]1CN(C(=O)c2nc3ccc(Cl)cn3c2CN2CCc3sccc3C2)C[C@H](C)O1 | inconclusive: 2.06 µM [cytotoxic, partial curve, poor fit] | – |
| CCOC(=O)c1c(C)[nH]c(C)c1S(=O)(=O)N1c2ccccc2CC1C (stereo not given) | inconclusive: 29.1 µM [cytotoxic, single point] | – |

| SMILES | Potency | activity change, negative = cytotoxicity |
| --- | --- | --- |
| CCc1cc(-c2nnn(CCC3COCCO3)c2CC)ccc1-c1cn(Cc2ccccc2)nn1 (stereo not given) | active: 1.84 µM | – |
| Cc1ccc(C(=O)C(C)OC(=O)c2cc3cc([N+](=O)[O-])ccc3oc2=O)cc1 (stereo not given) | – | inactive: 12.4% |
| CC(C)CC(c1nnnn1CC1CCCO1)N1CCN(C2CCCC2)CC1 (stereo not given) | – | inactive: -11.3% |
| COc1ccc(N2C(=O)CSC23C(=O)N(Cc2cccc(F)c2)c2ccccc23)cc1Cl (stereo not given) | active: 16.4 µM | – |
| C=CCn1c(C)cc(C(=O)CN2NS(=O)(=O)c3ccccc3C2=O)c1C | inconclusive: 25.9 µM [cytotoxic, single point] | – |
| Cc1ccc(OCC(=O)Nn2c(C)nc3ccccc3c2=O)c(C(C)C)c1 | active: 18.4 µM | – |
| Cc1ccc(-c2ccc(CN3C(C(C)C)C(=O)N(Cc4cn(CCC5OCCO5)nn4)CCS3(=O)=O)cc2)c(C)c1 (stereo not given) | inconclusive: 29.1 µM [cytotoxic, single point] | – |
| O=C(C[C@H]1C[C@H]2c3cc(NS(=O)(=O)c4ccc(F)cc4)ccc3O[C@H]2[C@H](CO)O1)NCc1cc(F)ccc1F | – | inactive: 5.71% |
| COc1ccccc1C(=O)N1CCN(c2cccc(C(F)(F)F)c2)CC1 | active: 2.91 µM | – |
| Cc1cc(C)n2nc(SCC(=O)Nc3ccccc3F)nc2n1 | inconclusive: 23.1 µM [cytotoxic, single point] | – |
| Cc1ccc2nc(NC(=O)CSc3nccn3Cc3ccc(F)cc3)sc2c1 | inconclusive: 29.1 µM [rising, single point] | – |
| CCN(CC)S(=O)(=O)c1ccc(OC(C)C)c(NC(=O)c2c3c(nc4ccccc24)CCN(Cc2ccccc2)C3)c1 | inconclusive: 3.66 µM [cytotoxic, partial curve] | – |
| O=C(O)c1ccc(Cn2c(SCc3ccc(F)cc3)nc3ccncc32)cc1 | inconclusive: 29.1 µM [rising, single point] | – |
| CCn1c(=N)n(CC(=O)c2ccc(Cl)c(Cl)c2)c2ccccc21 | active: 16.4 µM | – |
| CC1(C(=O)NS(=O)(=O)c2cccc(Cl)c2)CCN1C(=O)Cc1ccsc1 (stereo not given) | – | inactive: 0.259% |
| Cc1nc2ncccn2c1-c1csc(NCc2ccco2)n1 | active: 16.4 µM | – |
| Cc1cccc(C(=O)OCC(=O)NC(=O)Cc2ccccc2)c1O | inconclusive: 32.6 µM [rising, single point] | – |
| COCCCNC(=S)N(CCO)Cc1cc2cc3c(cc2[nH]c1=O)OCO3 | – | inactive: 0% |
| COc1ccc(CNC(=O)COc2ccc(S(=O)(=O)NC(C)C)cc2)cc1 | inconclusive: 18.4 µM [cytotoxic, partial curve, poor fit] | – |
| Cc1ccc(-c2cc(C(=O)O)c3ccccc3n2)c(C)c1 | – | inactive: -2.33% |
| COc1ccc(OC)c(C(c2nnnn2Cc2ccccc2)N2CCN(C)CC2)c1 (stereo not given) | inconclusive: 23.1 µM [cytotoxic, single point] | – |
| COc1ccc(C(C)(C)C)cc1NC(=O)CNc1cccc2ccccc12 | inconclusive: 23.1 µM [cytotoxic, partial curve, poor fit] | – |

5 successive records already listed:

| SMILES | Potency | activity change, negative = cytotoxicity |
| --- | --- | --- |
| Cc1cc(C)n2nc(SCC(=O)Nc3ccccc3F)nc2n1 | inconclusive: 23.1 µM [cytotoxic, single point] | – |
| Cc1ccc2nc(NC(=O)CSc3nccn3Cc3ccc(F)cc3)sc2c1 | inconclusive: 29.1 µM [rising, single point] | – |
| CCN(CC)S(=O)(=O)c1ccc(OC(C)C)c(NC(=O)c2c3c(nc4ccccc24)CCN(Cc2ccccc2)C3)c1 | inconclusive: 3.66 µM [cytotoxic, partial curve] | – |
| O=C(O)c1ccc(Cn2c(SCc3ccc(F)cc3)nc3ccncc32)cc1 | inconclusive: 29.1 µM [rising, single point] | – |
| CCn1c(=N)n(CC(=O)c2ccc(Cl)c(Cl)c2)c2ccccc21 | active: 16.4 µM | – |
